Results are given in words; binding and its absence hold for the method and conditions named. Some results given as binding are weak or reduced against the parent protein; the word gives no strength.
Key:
[1] = target: marmoset IL-4R (marmoset) (UniProt Q0PIT7); test: ELISA on coated monkey IL-4R (FIG. 7)
[2] = target: marmoset IL-4R (marmoset) (UniProt Q0PIT7); test: ELISA on coated monkey IL-4R, same method as for FIG. 6

B1: IL-4R single-domain antibody Nb103 (VHH)
VHH: QVQLQESGGGSVQAGGSLRVSCAASGSTSYRYCMAWFRQAPGKEREAVASIRPRSGRAYYADSVKGRFTISLDNAKNTLYLQMNSLKPEDTAMYYCAASDNDGNCQDYWGKGTQVTVSS
notes: also called candidate single-domain antibody Nb103; IL-4Ra Nb103 antibody; not shown: tag(s) from the pMECS phage vector
[1]
  binding: binds
[2]
  binding: binds

Source: patent publication US20220411519A1 (SHANGHAI NOVAMAB BIOPHARMACEUTICALS, published 2022)
